This passage reports cell number change and AC50 results from PubChem BioAssay AID2685 (National Center for Advancing Translational Sciences (NCATS), 2010).

The experiment can be described thus: qHTS Assay for Lipid Storage Modulators in Drosophila S3 Cells.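 As to cell number change: cells counted by Cell Tracker Red CMTPX staining in the red channel.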 As to conditions: BODIPY lipid droplet fluorescence, 18-24 h; for cell number change: measured here: cell count max response, cells fed with added oleic acid. In outline: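 Drosophila S3 cells got compounds at several concentrations plus oleic acid (400 uM solution). Laser-scanning cytometry with 488 nm excitation read lipid droplets at 500-530 nm and cells at 575-640 nm. Percent activity was relative to 20 uM Triacsin C.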
(In general: qHTS replaces the single test concentration by a dilution series.)

[1] abbreviates: measured here: lipid fluorescence (Fed channel) AC50, cells fed with added oleic acid.
Where [2] appears, read: measured here: cell number channel AC50, cells fed with added oleic acid.

One may read the AC50 as the concentration giving half of the maximal activity seen. A high value points to activity only at high concentration.

The other results are listed elsewhere or left out. Further columns of the screen follow, without active or inactive calls. Compounds called inactive in the main read-out are mostly missing here. Words in brackets tell the shape of the fitted curve; partial curves, single points and poor fits give uncertain potencies.

For the compound `O=C(CSc1nnc(Cc2cc(=O)[nH]c(=O)[nH]2)n1-c1ccccc1)NCC1CCCO1` (stereo not drawn), the cell number change was -12.5%. The AC50 under setting [1] is 29.1 µM [falling, single point].
For the compound `C/C(N)=C(/C#N)C(=O)CSc1nnc(COc2ccccc2Cl)o1`, the cell number change is 9.88%. The AC50 under setting [1] is 0.259 µM [rising, full curve, poor fit].
In the case of `Cc1occc1C(=O)N1CCC2(CCCN(Cc3ccc(F)c(F)c3)C2)C1` (stereo not drawn), the cell number change is 38.4%. Moreover, the AC50 under setting [2] was 23.1 µM [rising, partial curve, poor fit].
Turning to `O=C(Nc1c2c(nn1-c1ccc([N+](=O)[O-])cc1)CS(=O)(=O)C2)C1CC1`, the cell number change came out at 6.13%. Moreover, under setting [1], the AC50 was 29.1 µM [rising, single point].
`Cc1ccc(S(=O)(=O)Nc2ccccc2C(=O)N2CCOCC2)cc1`: the cell number change is -11.3%.
The same measure, in the same setting: under `COc1ccc(NC(=S)N2CCCC2)c(OC)c1` stands 19.9%.
Consider `COc1ccc(N2CCN(C(=S)NC(=O)c3cccs3)CC2)c([N+](=O)[O-])c1`, for which the cell number change came out at 24.1%. The AC50 under setting [2] is 1.3 µM [rising, full curve, poor fit].
For the compound `CC(OC(=O)CCCc1c[nH]c2ccccc12)C(=O)Nc1ccc(S(N)(=O)=O)cc1` (stereo not drawn), the cell number change is 7.02%. In addition, the AC50 under setting [1] was 0.00517 µM [rising, full curve, poor fit].
As to `C=CCN(C#N)c1nc(OC)nc(N2CCCC2)n1`, the cell number change came to 21.8%. For the same compound, the AC50 under setting [1] was 1.64 µM [rising, partial curve].
For the compound `CCCC(=O)N(Cc1cccnc1)c1nc2c(OC)ccc(Cl)c2s1`, the cell number change worked out at 17.7%.
`CC(=O)Nc1cc(-c2ccc(F)cc2)[nH]n1`: the cell number change is -32.6%. Moreover, the concentration at half-maximal activity (AC50) under setting [2] was 13 µM [falling, single point].
In the case of `Cn1cccc1/C=N/NC(=O)c1cccc(OC(F)(F)C(F)F)c1`, the cell number change was determined as 42.1%. For the same compound, under setting [2], the AC50 is 2.91 µM [rising, partial curve]. Also, the AC50 under setting [1] is 5.8 µM [rising, partial curve].
On to `COc1ccccc1OCCC(=O)OCC(=O)Nc1ncc(Cl)cc1Cl`, for which the cell number change is -0.845%. The half-maximal activity concentration (AC50) under setting [1] is 29.1 µM [rising, single point].
Consider `C/C(=N\Nc1ccc(S(N)(=O)=O)cc1[N+](=O)[O-])c1cccnc1`, for which the cell number change turned out to be 26.3%. For the same compound, the half-maximal activity concentration (AC50) under setting [1] is 0.1 µM [falling, full curve, poor fit].
In the case of `COc1ccc(-c2cc(C(=O)Nc3ccc(Br)cc3)no2)cc1`, the cell number change was -2.78%. In addition, the AC50 under setting [1] was 0.58 µM [rising, single point].
On to `O=C(COc1ccc(Br)cc1)Nc1ccccc1C(=O)NC1CC1`, for which the AC50 under setting [2] was 2.59 µM [rising, partial curve].
In the case of `O=C(CCNS(=O)(=O)c1ccc(Cl)cc1)Nc1ccncc1`, the cell number change is 1.26%.
As to `COCc1nnc(NC(=O)c2ccc3c(c2)OCO3)s1`, the cell number change turned out to be 47.7%. Also, the AC50 under setting [2] is 29.1 µM [rising, single point].
For the compound `C=Cc1ccc(C(=O)N2CCCC(Nc3ccc4c(c3)OCCO4)C2)cc1` (stereo not drawn), the cell number change turned out to be 4.42%.
Consider `O=C(C1CCC1)N1CCN(c2ccc(C(F)(F)F)cc2[N+](=O)[O-])CC1`, for which the AC50 under setting [1] was 0.651 µM [falling, full curve, poor fit].
`Cc1ccc(CN2C(=O)CCC2C(=O)NC2CCCC2)cc1` (stereo not drawn): the cell number change is -10.8%. Moreover, under setting [2], the AC50 was 2.31 µM [falling, partial curve, poor fit]. In addition, the AC50 under setting [1] was 23.1 µM [falling, partial curve].
With `CCc1cc(C(=O)N=Nc2c(O)[nH]c3c(Br)cc(Br)cc23)c2ccccc2n1`, the cell number change amounted to 21.5%. In addition, the AC50 under setting [2] is 0.82 µM [rising, full curve, poor fit]. Further, under setting [1], the half-maximal activity concentration (AC50) was 0.259 µM [rising, full curve, poor fit].
Consider `COc1ccccc1CNC(=O)COC(=O)c1ccc(C)c(S(=O)(=O)N2CCCCC2)c1`, for which the cell number change was found to be 1.66%. Moreover, under setting [1], the AC50 was 16.4 µM [falling, single point].
With `O=C(NC1CCCC1)C(c1ccccc1)N(C(=O)c1csnn1)C1CCCC1` (stereo not drawn), the cell number change was -11.5%.
With `COc1cccc(CC(=O)Nc2ccc(S(=O)(=O)N3CCOCC3)cc2)c1`, the AC50 under setting [1] was 0.291 µM [falling, partial curve, poor fit].
Turning to `COCCN(C(=O)COC(=O)Cc1c[nH]c2ccccc12)c1c(N)n(Cc2ccccc2)c(=O)[nH]c1=O`, the cell number change was found to be 10.1%.
On to `CC(C)[C@]1(c2ccccc2)ON(c2ccccc2C(F)(F)F)C1=O`, for which the cell number change was -77.2%. The half-maximal activity concentration (AC50) under setting [2] was 7.31 µM [falling, single point]. For the same compound, the AC50 under setting [1] was 0.731 µM [rising, full curve].
Take `CC(C)C(=O)Nc1ccc(N2CCN(S(C)(=O)=O)CC2)cc1`: the cell number change was -72.5%. In addition, the AC50 under setting [2] was 32.6 µM [falling, single point].
Consider `Cc1csc(NC(=O)CSc2nnc(-c3ccoc3C)n2Cc2ccco2)n1`, for which the cell number change was -10.1%. In addition, the AC50 under setting [1] is 0.461 µM [rising, full curve].
Consider `O=C(O)c1ccc(N2C(=O)CC(N3CCN(c4cccc(C(F)(F)F)c4)CC3)C2=O)cc1` (stereo not drawn), for which the cell number change was -0.787%. Under setting [1], the AC50 is 0.146 µM [falling, partial curve, poor fit].
On to `Cc1ccc(S(=O)(=O)NC2CCCCC2)cc1C(=O)N1CCC(C(N)=O)CC1`, for which the cell number change was -51%. Further, the AC50 under setting [1] was 29.1 µM [falling, single point].
As to `CN(C)C(=O)c1cc(S(=O)(=O)N(C)C)c(Cl)cc1N1CCCC1`, the cell number change is -2.25%. In addition, under setting [1], the AC50 is 1.16 µM [falling, single point].
In the case of `O=C(NCc1ccccn1)c1ccc(N2CCCC2)c([N+](=O)[O-])c1`, the cell number change is -5.13%.
Turning to `NNS(=O)(=O)c1ccc2c(c1)Cc1cc(S(=O)(=O)NN)ccc1-2`, the cell number change was determined as 16.7%. In addition, the AC50 under setting [1] was 29.1 µM [rising, single point].
With `N/C(Cc1cccc2ccccc12)=N\OC(=O)c1cccs1`, the cell number change is -14%. Further, under setting [1], the AC50 is 2.59 µM [falling, single point].
As to `CN1C(=O)c2cccc3c(N)ccc(c23)C1=O`, the cell number change was -94.3%. Under setting [2], the AC50 is 29.1 µM [falling, single point]. Under setting [1], the AC50 is 16.4 µM [falling, partial curve].
As for `C#CCNC(=O)c1cccn1-c1ncc(C(F)(F)F)cc1Cl`, the cell number change came to 15.6%. Moreover, the AC50 under setting [1] was 0.00461 µM [falling, full curve, poor fit].
In the case of `CCC(=O)Oc1ccc(NC(=O)CSCc2ccccc2)cc1`, the cell number change was -25.1%. Under setting [1], the AC50 was 2.91 µM [falling, single point].
Consider `COc1ccc(CC(=O)c2cc(OC)c(OC)cc2CC(=O)O)cc1OC`, for which the cell number change amounted to 50.9%. Also, under setting [2], the AC50 was 7.31 µM [falling, single point]. Also, the AC50 under setting [1] is 6.51 µM [falling, single point].
